Test results published in patent US20240368668A1, “SUBSTRATES AND BIOMARKERS OF ADAMTS7” (The Broad Institute, Inc., priority 2021, published 2024).

Tested on: mouse ADAMTS7
Experiment: TMT10 TAILS N-terminomics, SMC1 experiment (Ad-mADAMTS7 WT vs EQ vs Luc, technical replicates, trypsin digest)
Type: cell-based
Details: TAILS HC Overlap; SMC1; total intensity of the peptide
Text: ADAMTS7 Expression, Cell Culture and Preparation of the Secreted Proteins—Full-length mouse Adamts7 1-1857 (Uniprot Q68SA9, WT or E373Q catalytic mutant) with a carboxyl terminal 3xFLAG tag was used to generate custom adenoviruses as previously described. Adeno-CMV-Luciferase (Ad-Luc) from Vector Biolabs was used as a negative control. Human Coronary Artery Smooth Muscle Cells (HCA-SMC) were obtained from Lonza and expanded in Lonza SmGM-2 media in 15 cm tissue culture plates. Twenty-four hours before media collection, near confluent plates were transduced with 50 MOI adenovirus and switched to Lonza Basal SM media with volumes of 20 ml per 15 cm plate. Expression of the Flag tagged ADAMTS7 was confirmed from the media using western blot and detected using the anti-Flag M2-HRP antibody (Sigma, A8592). Collected media was processed by adding protease inhibitors (1 mM EDTA and 1 mM PMSF) and clarified by 500 g×5 min spin at 4 C to pellet cell debris. Cell media supernatants were then passed through a 0.22 um filter and kept chilled. Processed media was then concentrated 50-100× using 3 kDa Centricon Plus-70 filter unit, spun at 3,500 g×60 min at 4 C. Approximately 10% of the processed, concentrated media was set aside for total secretome proteolytic analysis. The remaining 90% of the processed, concentrated media was buffer exchanged into 50 mM HEPES pH 8.0, 150 mM NaCl (2×50 ml) using the 3 kDa Centricon Plus-70 filter unit and concentrated to >2 mg/ml to serve as input for the TAILS experiment. Secretome and TAILS input samples were stored at −80° C.
For the first experiment, referred to as SMC1, 120 ml of media from 6×15 cm dishes was pooled from each condition (Luc, WT, EQ) and processed to produce three separate inputs for the TAILS experiment. Luc, WT and EQ inputs from the SMC1 experiment were each divided into triplicate 400 ug samples to generate technical replicate TAILS data. For the second experiment, referred to as SMC2, media was processed separately in triplicate for each condition (Luc1, Luc2, Luc3, WT1, WT2, WT3, EQ1, EQ2, EQ3) using 60 ml of media from 3×15 cm dishes for each process replicate. Inputs from the SMC2 experiment used process replicates of 300 ug each to generate TAILS data. The third experiment used input from cultured Human umbilical vein endothelial cells (HUVEC) from Lifeline Cell Technology grown in VascuLife Media and transduced in Lifeline Basal EC (+bFGF2 10 ng/ml). The HUVEC experiment used the same strategy as the SMC2 experiment, with 40 ml of media from 2×15 cm dishes for each process replicate and used 200 ug each to generate TAILS data. Inputs for process replicate experiments were restricted to the lowest concentration from the 9 parallel samples for SMC2 or HUVEC.
TMT10 isotopic labeling and negative selection of non-labeled peptides-Sample preparation was performed based on the TAILS protocol from the Overall lab with some modifications. From a single experiment, nine parallel protein samples in 50 mM HEPES pH 8.0, 150 mM NaCl were separately denatured with guanidinium chloride (Sigma, G4505) to reach a final concentration of 2.5M guanidinium chloride and 250 mM HEPES and incubated at 65° C. for 15 min. Reduction was achieved through addition of tris(2-carboxylethyl) phosphine (TCEP) at a final concentration of […] and incubated at 65° C. for 45 min. Alkylation reaction was performed with addition of iodoacetamide (IAA, Sigma, A3221) to a final concentration of 10 mM IAA for 15 min at room temperature in the dark. Following denaturation, reduction and alkylation steps, ten percent of each of the nine parallel protein samples was removed and combined to serve as a pooled reference. Isobaric tags were added to free amine groups using the TMT10plex Isobaric Mass Tagging Kit (ThermoFisher, 90113) with TMT channels randomly assigned to the nine samples and TMT 131 assigned to the pooled reference. […]

Substance	SMC1 TAILS.total Intensity
COL1A2_113 (FQGPAGEPGEPGQTGPAGAR; listed as Homo sapiens)	2.09E+09

Same assay, conditions: TAILS N-terminal peptide identified in SMC conditioned media (scale-up, fractions), mouse ADAMTS7; value listed per TAILS_id (protein_StartAA)

Substance	TAILS_SMC_Scaleup_fxns_mATS7i
LTBP1_546 (HVYPVAAKTQLGR; listed as Homo sapiens)	3.09E+08
HSPG2_4004 (SAEPLALGR; listed as Homo sapiens)	1.03E+10
PDLIM4_104 (IDPEIQDGSPTTSR; listed as Homo sapiens)	2.81E+07
POSTN_807 (LLQGDTPVR; listed as Homo sapiens)	3.08E+08
IGFBP3_200 (FSSESKR; listed as Homo sapiens)	3.44E+08
NID2_467 (LEDNIGSNTEVFTYNAANKETCEHNHR; listed as Homo sapiens)	1.69E+08
LGALS3BP447 (FQAPSDYR; listed as Homo sapiens)	1.48E+08
PXDN_1341 (SYQEDKPTKKTR; listed as Homo sapiens)	1.16E+09
HTRA1_33 (LAAGCPDR; listed as Homo sapiens)	1.00E+08
LTBP1_494 (SVQIHQVSR; listed as Homo sapiens)	1.79E+09
LTBP2_1371 (SGQKGHAPCSSVLGR; listed as Homo sapiens)	6.28E+08
LASP1_123 (HEEFEKSR; listed as Homo sapiens)	2.34E+07
NID2_374 (VGGPDLKGQVEPWDER; listed as Homo sapiens)	1.18E+08
IFI30_43 (YKTGNLYLR; listed as Homo sapiens)	6.01E+06
SDC4_106 (LEENEVIPKR; listed as Homo sapiens)	1.76E+08
PSAP_171 (FMANIPLLLYPQDGPR; oxidized Met; listed as Homo sapiens)	1.43E+08
OS9_54 (QSQSSDVVIVSSKYKQR; modified N-terminal Gln; listed as Homo sapiens)	1.17E+09
HSPG2_4133 (DGFKGDLCEHEENPCQLR; listed as Homo sapiens)	4.04E+08
LTBP2_533 (SGEPPRPLPPAAPR; listed as Homo sapiens)	1.02E+10
LGALS1_53 (HGDANTIVCNSKDGGAWGTEQR; listed as Homo sapiens)	4.04E+08
LTBP2_1584 (SSEVYAQLCNVAR; listed as Homo sapiens)	3.60E+09
HSPG2_4075 (GCVGEVSVNGKR; listed as Homo sapiens)	1.79E+09
PXDN_1393 (QKTITDLR; listed as Homo sapiens)	8.16E+07
NUCB1_228 (LKEVWEELDGLDPNR; listed as Homo sapiens)	1.30E+08
POLR3G_88 (LFCSHWSHIPGFK; listed as Homo sapiens)	7.00E+07

Same assay, conditions: TAILS N-terminal peptide signal, SMC scale-up fractions, mouse ADAMTS7; label = TAILS_id (gene symbol_StartAA)

Substance	TAILS_SMC_Scaleup_fxns_mATS7i
ACTB_21 (FAGDDAPR; listed as Homo sapiens)	6.18E+09
FN1_45 (VSQSKPGCYDNGKHYQINQQWER; listed as Homo sapiens)	5.68E+10
HSPG2_1937 (SSAGQQVAR; listed as Homo sapiens)	1.34E+08
FLNA_612 (SVEGPSQAKIECDDKGDGSCDVR; listed as Homo sapiens)	8.79E+08
CLEC11A_50 (HLQEALGLPAGR; listed as Homo sapiens)	7.22E+07
APLP2_579 (ISETPVDVR; listed as Homo sapiens)	1.83E+08
FN1_2143 (FEEHGFR; listed as Homo sapiens)	8.90E+07
HSPG2_3813 (SSGFIGCVR; listed as Homo sapiens)	1.02E+08
COL1A2_731 (AAGQPGAKGER; listed as Homo sapiens)	2.50E+08
HEG1_49 (GAGLELQLER; listed as Homo sapiens)	9.60E+08
COL1A2_1127 (SLRPKDYEVDATLKSLNNQIETLLTPEGSR; listed as Homo sapiens)	1.05E+08
COL4A2_172 (YALPKEER; listed as Homo sapiens)	8.09E+07
COL1A2_91 (GPMGLMGPR; listed as Homo sapiens)	6.70E+07
COL8A1_90 (MKEIQPAPR; listed as Homo sapiens)	4.20E+07
FN1_281 (SGSGPFTDVR; listed as Homo sapiens)	5.31E+09
COL1A2_1037 (HHGDQGAPGSVGPAGPR; listed as Homo sapiens)	7.86E+09
HSPG2_3250 (SPLPWQHR; listed as Homo sapiens)	1.36E+10
COL1A2_389 (SAGPPGPPGLR; listed as Homo sapiens)	4.24E+07
ACTB_105 (LTEAPLNPKANR; listed as Homo sapiens)	5.77E+09
HLA−C_52 (VDDTQFVR; listed as Homo sapiens)	1.21E+10
COL5A1_544 (SQAQAILQQAR; listed as Homo sapiens)	2.24E+08
CDC37_43 (FQKEKEELDR; listed as Homo sapiens)	4.09E+06
ECM1_43 (YAAPPSPPLSR; listed as Homo sapiens)	3.25E+08
EHBP1L1_298 (TAPTPAPR; listed as Homo sapiens)	2.19E+07
COL1A2_113 (FQGPAGEPGEPGQTGPAGAR; listed as Homo sapiens)	2.09E+09
HSPG2_3672 (SFLPLPTIKDAYR; listed as Homo sapiens)	1.76E+09

Same assay, conditions: intensity of the N-terminal (TAILS) peptide in SMC scale-up TAILS experiment, fractions; peptide identified by TAILS_id (gene symbol_StartAA)

Substance	TAILS_SMC_Scaleup_fxns_mATS7i
VIM_433 (LVDTHSKR; listed as Homo sapiens)	1.81E+08
VASN_138 (HIQPGAFDTLDR; listed as Homo sapiens)	4.88E+07
TGFBI_208 (GIVTVNCAR; listed as Homo sapiens)	2.03E+08
TGFBI_497 (VLTPPMGTVMDVLKGDNR; listed as Homo sapiens)	3.45E+08
TG_1017 (GASALLR; listed as Homo sapiens)	1.85E+08
TGFBI_24 (GPAKSPYQLVLQHSR; listed as Homo sapiens)	6.17E+10
SRGN_60 (LPGESNKIPR; listed as Homo sapiens)	2.92E+07
TLN1_1501 (HTSALCNSCR; listed as Homo sapiens)	6.47E+06
STC1_37 (QNSAEVVR; listed as Homo sapiens)	1.51E+08
VASP_229 (AIAGAKLR; listed as Homo sapiens)	3.14E+07
THBS1_972 (QNDPNWVVR; listed as Homo sapiens)	3.65E+08
SRGN_62 (GESNKIPR; listed as Homo sapiens)	3.99E+08
TGFBI_50 (AVQKVIGTNR; listed as Homo sapiens)	5.27E+08
